For test [1], the target named is HA-tagged Smad4. As to the kind of experiment: FAST-1 deletion mutant co-expressed with tagged Smad in Xenopus embryos.
Test [2] has as its target HA-tagged Smad4. Description: Myc-tagged FAST-1 deletion mutant co-expressed with tagged Smad and activin in Xenopus embryos (summarised in FIG. 6A).

These are yes or no findings as the source states them, for the method shown. For part of these data: Binding calls can cover weak binding; strength is not graded here. Sequences can lack the tags named with a protein.

The values that follow come from patent publication US6365711.

B1: Myc-tagged Δ473-534 (protein, not shown: small tags and cut ends)
chain: YREGGTWSPDRGSMYGLSPGTHEGSCTHTHEGPKDSMAGDQTRSRKSKKKNYHRYNKPPYSYLAMIALVIQNSPEKRLKLSQILKEVSTLFPFFNGDYMGWKDSIRHNLSSSDCFKKILKDPGKPQAKGNFWTVDVSRIPLDAMKLQNTALTRGGSDYFVQDLAPYILHNYKYEHNAGAYGHQMPPSHARSLSLAEDSQQTNTGGKLNTSFMIDSLLHDLQEVDLPDASRNLENQRISPAVAMNNMWSSAPLLYTHSKPTRNARSPGLSTIHSTYSSSSSSISTISPVGFQKEQEKSGRQTQRVGHPIKRSREDDDCSTTSSDPDTGNYSPIEPPKKMPLLSLDLPTSYTKSVAPNVVAPPSVLPFFHFPRFTYYNYGPSPYMTPPYWGFPHPTNSGGDSPRGPQSPLDLDN
Regarding B1, the binding result in test [1] is given as “no binding”.

B2: Myc-tagged Δ1-366 FAST-1 (protein, not shown: small tags and cut ends)
chain: HPIKRSREDDDCSTTSSDPDTGNYSPIEPPKKMPLLSLDLPTSYTKSVAPNVVAPPSVLPFFHFPRFTYYNYGPSPYMTPPYWGFPHPTNSGGDSPRGPQSPLDLDNMLRAMPPNKSVFDVLTSHPGDLVHPSFLSQCLGSSGSPYPSRQGLMYRRRPPGLTWSGHSMK
For B2, the binding entry in test [2] is “binds”.

B3: Myc-tagged Δ506-534 (protein, not shown: small tags and cut ends)
chain: YREGGTWSPDRGSMYGLSPGTHEGSCTHTHEGPKDSMAGDQTRSRKSKKKNYHRYNKPPYSYLAMIALVIQNSPEKRLKLSQILKEVSTLFPFFNGDYMGWKDSIRHNLSSSDCFKKILKDPGKPQAKGNFWTVDVSRIPLDAMKLQNTALTRGGSDYFVQDLAPYILHNYKYEHNAGAYGHQMPPSHARSLSLAEDSQQTNTGGKLNTSFMIDSLLHDLQEVDLPDASRNLENQRISPAVAMNNMWSSAPLLYTHSKPTRNARSPGLSTIHSTYSSSSSSISTISPVGFQKEQEKSGRQTQRVGHPIKRSREDDDCSTTSSDPDTGNYSPIEPPKKMPLLSLDLPTSYTKSVAPNVVAPPSVLPFFHFPRFTYYNYGPSPYMTPPYWGFPHPTNSGGDSPRGPQSPLDLDNMLRAMPPNKSVFDVLTSHPGDLVHPSFLSQCLG
As for B3, the binding result in test [2] is “binds”.
